Experimental data as given in patent publication WO2012119989A2 (dated 2012).
Where a chain is given by its changes, count along the chain named. These are yes or no findings as the source states them, for the method shown. Some binding calls cover weakened binding; strength is not graded here.

How the values were obtained:
[1] = target: T1, Cell adhesion molecule-1 (CADM1), human, on the cell surface (human) (UniProt Q9BY67); test: flow cytometry, CHO Clon 139 overexpressing human CADM1, signal reduced by CADM1 siRNA s24325; antibody 10ug/ml
T1 sequence (looked up): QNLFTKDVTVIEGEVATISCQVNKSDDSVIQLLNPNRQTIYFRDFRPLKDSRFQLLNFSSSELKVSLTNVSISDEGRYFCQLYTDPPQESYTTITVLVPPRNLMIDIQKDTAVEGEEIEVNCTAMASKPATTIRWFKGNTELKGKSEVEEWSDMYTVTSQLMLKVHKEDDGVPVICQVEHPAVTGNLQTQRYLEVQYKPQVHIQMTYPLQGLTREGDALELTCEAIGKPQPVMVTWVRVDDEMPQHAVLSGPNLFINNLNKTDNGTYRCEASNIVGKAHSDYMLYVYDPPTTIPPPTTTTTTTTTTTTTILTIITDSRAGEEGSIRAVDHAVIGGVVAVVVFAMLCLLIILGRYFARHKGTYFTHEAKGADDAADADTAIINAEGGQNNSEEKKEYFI

[2] = target: T1, Cell adhesion molecule-1 (CADM1), human, on the cell surface (human); test: Hum-ZAP internalization assay on CADM1-expressing cancer cell line
[3] = target: T1, Cell adhesion molecule-1 (CADM1), human, on the cell surface (human); test: flow cytometry with CADM1 siRNA, DU145 cells
[4] = target: T1, Cell adhesion molecule-1 (CADM1), human, on the cell surface (human); test: flow cytometry titration on human cancer cell lines (Table 9, not given)
[5] = target: T1, Cell adhesion molecule-1 (CADM1), human, on the cell surface (human); test: flow cytometry, CHO cells transiently transfected with full-length CADM1

Measured: binding

B1: Antibody-10 (antibody, V domains shown)
VH: EVQLLESGGGLVQPGGSLRLSCAASGFTFSMYTMSWVRQAPGKGLEWVSSIWSSGGKTSYADSVKGRFTISRDNSKNTLYLQMNSLRAEDTAVYYCAKESWYFDLWGRGTL
VL: QYELTQDPAVSVALGQTVRITCQGHSLRSYYATWYQQKPGQAPVLVMYGENNRPSGIPDRFSGSSSGNTASLTITGAQAEDEADYYCNSRDNSGNHLVFGGGTNLTVL
notes: also called AB10; AB 1 0
binds: all assays above

B2: Antibody-3 (antibody, V domains shown)
VH: B1 VH with M31R, T33P, S35Y, W52S, K57L, S59H, K98R, E99G, S100D
VL: QYELTQDPAVSVALGQTVRITCQGDSLRTYYASWYQQRPGQAPVLVIYGDNDRPSGIPDRFSGSTSRNTASLTITGAQAEDEAHYYCNSRDSSGNHIFATGTKVTVL
notes: also called AB3; AB 3
not listed: [2]
binds: all other assays above
